Measurements taken from PMC9849758, “Chemically diverse activity-based probes with unexpected inhibitory mechanisms targeting trypsin-like serine proteases” (Frontiers in Chemistry, 2023).
The structures given here were assigned with low confidence; some may be wrong.

Sequences of proteins named here, by UniProt entry; tags and fusion partners are left off. Residues count along the entry.
UniProt P35030, whole entry: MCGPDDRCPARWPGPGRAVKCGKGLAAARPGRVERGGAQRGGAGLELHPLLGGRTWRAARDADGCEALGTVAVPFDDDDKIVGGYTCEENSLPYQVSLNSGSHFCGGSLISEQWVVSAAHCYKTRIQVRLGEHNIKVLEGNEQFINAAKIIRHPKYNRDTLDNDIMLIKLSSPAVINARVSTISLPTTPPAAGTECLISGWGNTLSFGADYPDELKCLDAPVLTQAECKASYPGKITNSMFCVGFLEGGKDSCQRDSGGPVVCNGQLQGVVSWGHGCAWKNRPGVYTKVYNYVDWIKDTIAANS
UniProt P20231, 31-275 limits assumed: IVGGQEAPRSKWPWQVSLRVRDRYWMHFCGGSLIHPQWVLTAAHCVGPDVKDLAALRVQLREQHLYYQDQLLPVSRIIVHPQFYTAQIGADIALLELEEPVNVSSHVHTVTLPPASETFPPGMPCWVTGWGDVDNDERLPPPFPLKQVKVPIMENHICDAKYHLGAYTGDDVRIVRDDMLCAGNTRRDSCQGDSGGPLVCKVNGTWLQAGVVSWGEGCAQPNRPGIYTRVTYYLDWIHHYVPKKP

How the values were obtained:
Format in all cases: biochemical
Trypsin-3 [1] = molecular target: T1, Trypsin-3 (Homo sapiens, UniProt P35030); assay: Kinetic progress curves (kapp, K1, KI*, mechanism); details: apparent second-order rate constant from progress curves; mean ± SD; tested form: TFA
Method: (§1) Because the compounds described in this paper were previously described as irreversible inhibitors, the IC50 value is inversely correlated with the second-order rate constant of inactivation. For a simple pseudo-first-order inactivation process, the activity after incubation with inhibitor (vi) varies with the inhibitor concentration (i), as described in the following equation: vi=v0·e^−kit where v0 is the activity in the absence of an inhibitor, k is the second-order rate constant of inactivation, and t is the time. The inactivation rate constant was determined from the time course of inhibition.
Kinetic assays were performed in the following manner. The inhibitor was mixed with the substrate, and the buffer solution with the enzyme was added at the time zero. The progress curves show the release of pNA or AMC as a function of time. Initially, no inhibitor is bound to the enzyme, and the tangent to the progress curve (dA/dt) is proportional to the free enzyme concentration. The free enzyme concentration decreases over time due to inhibitor binding kinetics, as described above. Progress curves were recorded in pseudo-first-order conditions ([I]0>>[E]0) and with less than 10% conversion of the substrate during the entire time course. In these conditions, dA/dt decreases exponentially with time. The progress curves were fitted with the integrated rate equation with GraFit7 to yield a value for kobs, a pseudo-first-order rate constant. At=Ao+vs∙t+vi−vs∙1−e^−kobs∙t/kobs where At is the absorbance at time t, A0 is the absorbance at time zero, vi is the initial rate and vs is the velocity at the steady-state.
(§2) The apparent second-order rate constant (kapp) was calculated from the slope of the linear part of the plot of kobs vs. the inhibitor concentration ([I]0). […]

uPA [2] = molecular target: T2, uPA (Homo sapiens, UniProt P00749); assay: Kinetic progress curves (kapp, mechanism); details: apparent second-order rate constant from progress curves; mean ± SD; tested form: TFA
Method: as §1
Kinetic assays were performed in the following manner. The inhibitor was mixed with the substrate, and the buffer solution with the enzyme was added at the time zero. The progress curves show the release of pNA or AMC as a function of time. […] Progress curves were recorded in pseudo-first-order conditions ([I]0>>[E]0) and with less than 10% conversion of the substrate during the entire time course. […] At=Ao+vs∙t+vi−vs∙1−e^−kobs∙t/kobs where At is the absorbance at time t, A0 is the absorbance at time zero, vi is the initial rate and vs is the velocity at the steady-state.
as §2

Thrombin = Thrombin (Homo sapiens, UniProt P00734); assay: Jump dilution, determination of inhibition type; details: inhibitor at 10 times IC50, 15 min, diluted 10-fold or 100-fold; Rev./Irrev.; tested form: TFA
Method: (§3) To monitor the dissociation of the inhibitor-enzyme, aliquots of the enzyme were incubated at 37°C without and with the inhibitor at a concentration 10 times higher than its IC50. The enzyme concentration was 2.5 times higher than the concentration used for the IC50 determinations. After 15 min, the aliquots were diluted 10-fold or 100-fold into the substrate concentration and assay buffer used for the IC50 determination. The dissociation of the enzyme-inhibitor complex was monitored by substrate hydrolysis over time ([Joossens et al., 2006]).
(§4) Because ABPs are designed to be irreversible serine protease inhibitors, the IC50 is exclusively used as a first discriminatory evaluation. When an inhibitor is irreversible, its IC50 value not only depends on the substrate and enzyme concentration but also on the time of incubation with the enzyme before the reaction is started by adding the substrate. […] The progress curve in the presence of an irreversible inhibitor will show final velocities equal to zero (Figure 6C). In contrast, for a reversible inhibitor, progress curves have a non-zero final steady-state velocity (Figure 6A) ([McWhirter, 2021]). To corroborate the inhibitory mechanism of the compounds, jump-dilution assays were performed. These use an inhibitor concentration of 10-fold the IC50 for the incubation, and a posteriori, the reaction mixture is diluted 10-fold or 100-fold before adding the substrate. In the case of an irreversible inhibitor, enzymatic activity is not regained (Figure 6D), whereas, in the case of a reversible compound, a slow release of the inhibitor and a gradual increase of the enzymatic activity rate is observed (Figure 6B) ([Copeland, 2013]; [McWhirter, 2021]). The jump-dilution assays confirmed the behavior described by the progress curves.
(§5) 2.2.2 Jump dilution results
(§6) Supplementary Table 2. Jump dilution of selected alkyne and desthiobiotin probes against a panel of trypsin-like serine proteases. […]
(§7) # R R DtBa 3 tryptase Thrombin uPA CatG
(§8) 32b H Alk Irrev. Irrev. Rev. Irrev. Rev.
(§9) 45b DtB Irrev. Irrev. Rev. N.D. N.D.
(§10) 33b Alk Irrev. Irrev. Rev. Irrev. Rev.
(§11) 46b Cl DtB Irrev. Irrev. Rev. N.D. N.D.
(§12) 34b H Alk Rev. Rev. Rev. Irrev. Rev.
(§13) 50b DtB Rev. Rev. Rev. Irrev. Rev.
(§14) 35b Alk Rev. Rev. Rev. Irrev. Rev.
(§15) 52b NHCOMe DtB Rev. Rev. Rev. Irrev. Rev.
(§16) 36b Alk Rev. Rev. Rev. Irrev. Rev.
(§17) 54b Cl DtB Rev. Rev. Rev. Irrev. Rev.
(§18) 37b Alk Irrev. Irrev. N.D. Irrev. Irrev.
(§19) 55b H DtB Irrev. Irrev. N.D. Irrev. Irrev.
(§20) 38b Alk Irrev. Irrev. N.D. Irrev. Irrev.
(§21) 56b NHCOMe DtB Irrev. Irrev. N.D. Irrev. Irrev.
(§22) 39b Alk Irrev. Irrev. N.D. Irrev. Rev.
(§23) 57b Cl DtB Irrev. Irrev. N.D. Irrev. Rev.
(§24) 41b H Alk Irrev. Irrev. Irrev. N.D. N.D.
(§25) 31b Pro-Lys H Alk Irrev. Irrev. […]

Trypsin-3 [3] = molecular target: T1, Trypsin-3; assay: Jump dilution, determination of inhibition type; details: inhibitor at 10 times IC50, 15 min, diluted 10-fold or 100-fold; Rev./Irrev.; tested form: TFA
Method: as §3, §4, §5, §6, §7, §8, §9, §10, §11, §12, §13, §14, §15, §16, §17, §18, §19, §20, §21, §22, §23, §24, §25

uPA [4] = molecular target: T2, uPA; assay: Jump dilution, determination of inhibition type; details: inhibitor at 10 times IC50, 15 min, diluted 10-fold or 100-fold; Rev./Irrev.; tested form: TFA
Method: as §3, §4, §5, §6, §7, §8, §9, §10, §11, §12, §13, §14, §15, §16, §17, §18, §19, §20, §21, §22, §23, §24, §25

β-tryptase = β-tryptase (Homo sapiens, UniProt P20231); assay: Jump dilution, determination of inhibition type; details: inhibitor at 10 times IC50, 15 min, diluted 10-fold or 100-fold; Rev./Irrev.; tested form: TFA
Method: as §3, §4, §5, §6, §7, §8, §9, §10, §11, §12, §13, §14, §15, §16, §17, §18, §19, §20, §21, §22, §23, §24, §25

## C#CCCCC(=O)N1CCCC1C(=O)NC(CCCCN)P(=O)(Oc1ccccc1)Oc1ccccc1 (stereo not drawn)
Trypsin-3 [1]
  Trypsin-3 kapp: 13 × 10^2 ± 28 M^−1 s^−1
uPA [2]
  uPA kapp: 188 ± 1 M⁻¹ s⁻¹
Thrombin
  Thrombin jump dilution result: Irrev.
Trypsin-3 [3]
  Trypsin-3 jump dilution result: Irrev.
uPA [4]
  uPA jump dilution result: Irrev.
β-tryptase
  β-tryptase jump dilution result: Irrev.
